Results are given in words; binding and its absence hold for the method and conditions named. Some binding calls cover weakened binding; strength is not graded here. For some of these results: Where a sequence is shown, tags or fusion partners need not be part of it.

Results on two molecules are retold here after article PMC3338697, “Determination of Membrane Protein Transporter Oligomerization in Native Tissue Using Spatial Fluorescence Intensity Fluctuation Analysis” (PLoS ONE, 2012).

Experiment [1] deals with NBCe1-A-EGFP (human electrogenic sodium bicarbonate cotransporter NBCe1-A, EGFP coupled to the N-terminus), expressed in CHO-K1 cells (human) (UniProt Q9Y6R1). Description: spatial intensity distribution analysis (SpIDA); two-population SpIDA of CLSM images of fixed CHO-K1 cells, a monomer-dimer mixture model assumed; calibrated with the monomeric brightness control of each label.

Experiment [2] shares this target. Description: fluorescence image moment analysis; CLSM images of basal membranes of fixed, adherent CHO-K1 cells transiently expressing the construct; quantal brightness normalised to a monomeric control (mEGFP for the EGFP fusion; Alexa 488 dye on glass for the Alexa 488-α-bungarotoxin label), 1 MEU.
For experiment [3], the target named is NBCe1-A-bungarotoxin binding peptide construct (human) (UniProt Q9Y6R1). The experiment in a line: fluorescence image moment analysi.
For experiment [4] the target is unchanged. The experiment in a line: spatial intensity distribution analysis (SpIDA); two-population SpIDA of CLSM images of fixed CHO-K1 cells, a monomer-dimer mixture model assumed; calibrated with the monomeric brightness control of each label.

B1: NBCe1-A-EGFP (human electrogenic sodium bicarbonate cotransporter NBCe1-A, EGFP coupled to the N-terminus), expressed in CHO-K1 cells (protein, UniProt Q9Y6R1-2 1-1035)
chain: MSTENVEGKPSNLGERGRARSSTFLRVVQPMFNHSIFTSAVSPAAERIRFILGEEDDSPAPPQLFTELDELLAVDGQEMEWKETARWIKFEEKVEQGGERWSKPHVATLSLHSLFELRTCMEKGSIMLDREASSLPQLVEMIVDHQIETGLLKPELKDKVTYTLLRKHRHQTKKSNLRSLADIGKTVSSASRMFTNPDNGSPAMTHRNLTSSSLNDISDKPEKDQLKNKFMKKLPRDAEASNVLVGEVDFLDTPFIAFVRLQQAVMLGALTEVPVPTRFLFILLGPKGKAKSYHEIGRAIATLMSDEVFHDIAYKAKDRHDLIAGIDEFLDEVIVLPPGEWDPAIRIEPPKSLPSSDKRKNMYSGGENVQMNGDTPHDGGHGGGGHGDCEELQRTGRFCGGLIKDIKRKAPFFASDFYDALNIQALSAILFIYLATVTNAITFGGLLGDATDNMQGVLESFLGTAVSGAIFCLFAGQPLTILSSTGPVLVFERLLFNFSKDNNFDYLEFRLWIGLWSAFLCLILVATDASFLVQYFTRFTEEGFSSLISFIFIYDAFKKMIKLADYYPINSNFKVGYNTLFSCTCVPPDPANISISNDTTLAPEYLPTMSSTDMYHNTTFDWAFLSKKECSKYGGNLVGNNCNFVPDITLMSFILFLGTYTSSMALKKFKTSPYFPTTARKLISDFAIILSILIFCVIDALVGVDTPKLIVPSEFKPTSPNRGWFVPPFGENPWWVCLAAAIPALLVTILIFMDQQITAVIVNRKEHKLKKGAGYHLDLFWVAILMVICSLMALPWYVAATVISIAHIDSLKMETETSAPGEQPKFLGVREQRVTGTLVFILTGLSVFMAPILKFIPMPVLYGVFLYMGVASLNGVQFMDRLKLLLMPLKHQPDFIYLRHVPLRRVHLFTFLQVLCLALLWILKSTVAAIIFPVMILALVAVRKGMDYLFSQHDLSFLDDVIPEKDKKKKEDEKKKKKKKGSLDSDNDDSDCPYSEKVPSIKIPMDIMEQQPFLSDSKPSDRERSPTFLERHTSC
In the case of B1, the results for the binding entry in experiment [1] and in experiment [2] were “binds weakly” and “binds”, respectively.

B2: NBCe1-A-bungarotoxin binding peptide construct (protein, UniProt Q9Y6R1-2 1-1035)
chain: B1 chain
Turning to B2, the binding result in experiment [3] was “binds”; in experiment [4], “binds weakly”.
